According to publication doi:10.1101/2024.06.11.598486:
These are yes or no findings as the source states them, for the method shown. In cells and extracts the contact can be indirect. Some results given as binding are weak or reduced against the parent protein; the word gives no strength.

By UniProt entry, the sequences of proteins in these tests, tags left out.
UniProt Q00613: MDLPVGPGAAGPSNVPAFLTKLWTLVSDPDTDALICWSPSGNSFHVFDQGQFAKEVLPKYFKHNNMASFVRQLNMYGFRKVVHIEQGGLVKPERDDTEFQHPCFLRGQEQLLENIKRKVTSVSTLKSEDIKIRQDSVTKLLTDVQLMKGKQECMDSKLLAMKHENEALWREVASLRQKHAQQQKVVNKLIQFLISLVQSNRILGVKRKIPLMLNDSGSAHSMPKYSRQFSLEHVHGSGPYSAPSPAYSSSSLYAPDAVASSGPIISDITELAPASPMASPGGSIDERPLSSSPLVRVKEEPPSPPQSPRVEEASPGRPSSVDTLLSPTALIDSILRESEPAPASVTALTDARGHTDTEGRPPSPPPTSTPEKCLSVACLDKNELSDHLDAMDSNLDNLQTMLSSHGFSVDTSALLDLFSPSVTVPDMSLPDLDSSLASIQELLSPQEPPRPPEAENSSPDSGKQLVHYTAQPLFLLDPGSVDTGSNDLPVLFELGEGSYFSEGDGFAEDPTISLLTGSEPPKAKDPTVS
UniProt P01106: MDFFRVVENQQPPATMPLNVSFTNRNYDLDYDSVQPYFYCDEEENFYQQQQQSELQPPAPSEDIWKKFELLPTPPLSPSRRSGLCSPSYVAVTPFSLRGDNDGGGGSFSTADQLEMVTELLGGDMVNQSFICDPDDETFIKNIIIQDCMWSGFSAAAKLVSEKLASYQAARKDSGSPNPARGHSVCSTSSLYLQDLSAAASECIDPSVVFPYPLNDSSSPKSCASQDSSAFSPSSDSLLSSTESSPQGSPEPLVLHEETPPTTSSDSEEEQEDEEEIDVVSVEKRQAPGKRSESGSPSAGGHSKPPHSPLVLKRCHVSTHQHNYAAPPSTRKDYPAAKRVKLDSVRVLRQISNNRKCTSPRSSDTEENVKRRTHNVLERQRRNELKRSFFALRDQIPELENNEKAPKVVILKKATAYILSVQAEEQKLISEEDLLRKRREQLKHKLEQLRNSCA

Biological target: Heat shock factor 1 (HSF1) (human (endogenous in OVCAR4 and OVCAR8)) (UniProt Q00613)
Assay: co-IP

binding: binds
Substance: MYC (from UniProt P01106 1-454)
